Data reported in patent publication US20210238615A1.
These are yes or no findings as the source states them, for the method shown. Some binding calls cover weakened binding; strength is not graded here.

Protein sequences, listed by entry. Tags and fused reporters are not part of them. Lines headed by an entry give the natural chain unless they say otherwise; changes in a name come on top.
UniProt D0NRS4: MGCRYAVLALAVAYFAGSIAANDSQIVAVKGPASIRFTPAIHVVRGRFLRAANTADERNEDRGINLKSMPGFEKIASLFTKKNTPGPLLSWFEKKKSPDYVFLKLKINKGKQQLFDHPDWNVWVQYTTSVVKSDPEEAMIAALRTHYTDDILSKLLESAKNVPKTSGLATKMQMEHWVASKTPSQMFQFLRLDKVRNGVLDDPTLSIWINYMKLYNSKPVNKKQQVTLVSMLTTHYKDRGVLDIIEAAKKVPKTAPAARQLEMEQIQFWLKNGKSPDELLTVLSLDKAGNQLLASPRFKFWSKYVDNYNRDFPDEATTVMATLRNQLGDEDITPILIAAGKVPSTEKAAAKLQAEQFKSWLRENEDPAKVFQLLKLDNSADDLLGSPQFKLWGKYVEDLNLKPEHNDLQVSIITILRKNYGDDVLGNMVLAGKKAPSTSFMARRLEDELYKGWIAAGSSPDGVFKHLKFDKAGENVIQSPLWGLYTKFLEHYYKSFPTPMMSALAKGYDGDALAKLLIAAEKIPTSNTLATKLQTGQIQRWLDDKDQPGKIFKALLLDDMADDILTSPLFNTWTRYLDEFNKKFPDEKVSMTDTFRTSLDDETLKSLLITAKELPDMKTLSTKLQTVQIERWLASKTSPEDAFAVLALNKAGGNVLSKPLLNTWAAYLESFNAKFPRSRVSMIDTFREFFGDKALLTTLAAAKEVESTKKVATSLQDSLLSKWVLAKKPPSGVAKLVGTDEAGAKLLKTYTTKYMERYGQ

Key:
[1] = molecular target: T1, Arabidopsis PP2A A2 (PDF1) (Arabidopsis) (UniProt Q38950); test: yeast two hybrid (FIG. 4)
T1 sequence: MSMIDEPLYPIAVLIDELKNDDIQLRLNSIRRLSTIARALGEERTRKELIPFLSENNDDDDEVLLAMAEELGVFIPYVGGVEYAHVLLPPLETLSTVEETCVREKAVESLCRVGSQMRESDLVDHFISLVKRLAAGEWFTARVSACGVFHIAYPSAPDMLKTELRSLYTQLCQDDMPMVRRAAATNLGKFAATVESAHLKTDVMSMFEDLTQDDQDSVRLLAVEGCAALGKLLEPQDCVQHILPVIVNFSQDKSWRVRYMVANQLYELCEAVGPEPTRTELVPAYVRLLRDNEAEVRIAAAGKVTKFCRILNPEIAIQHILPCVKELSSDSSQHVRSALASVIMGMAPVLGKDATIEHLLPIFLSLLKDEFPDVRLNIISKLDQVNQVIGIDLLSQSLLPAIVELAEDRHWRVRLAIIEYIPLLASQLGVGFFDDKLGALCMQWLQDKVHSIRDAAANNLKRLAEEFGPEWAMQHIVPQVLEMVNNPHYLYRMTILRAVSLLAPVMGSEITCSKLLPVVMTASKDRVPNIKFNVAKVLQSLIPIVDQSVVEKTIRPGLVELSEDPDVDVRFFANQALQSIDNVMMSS

[2] = molecular target: T2, Arabidopsis PP2A subunit A RCN1 (Arabidopsis) (UniProt Q38845); test: yeast two hybrid (FIG. 4)
T2 sequence: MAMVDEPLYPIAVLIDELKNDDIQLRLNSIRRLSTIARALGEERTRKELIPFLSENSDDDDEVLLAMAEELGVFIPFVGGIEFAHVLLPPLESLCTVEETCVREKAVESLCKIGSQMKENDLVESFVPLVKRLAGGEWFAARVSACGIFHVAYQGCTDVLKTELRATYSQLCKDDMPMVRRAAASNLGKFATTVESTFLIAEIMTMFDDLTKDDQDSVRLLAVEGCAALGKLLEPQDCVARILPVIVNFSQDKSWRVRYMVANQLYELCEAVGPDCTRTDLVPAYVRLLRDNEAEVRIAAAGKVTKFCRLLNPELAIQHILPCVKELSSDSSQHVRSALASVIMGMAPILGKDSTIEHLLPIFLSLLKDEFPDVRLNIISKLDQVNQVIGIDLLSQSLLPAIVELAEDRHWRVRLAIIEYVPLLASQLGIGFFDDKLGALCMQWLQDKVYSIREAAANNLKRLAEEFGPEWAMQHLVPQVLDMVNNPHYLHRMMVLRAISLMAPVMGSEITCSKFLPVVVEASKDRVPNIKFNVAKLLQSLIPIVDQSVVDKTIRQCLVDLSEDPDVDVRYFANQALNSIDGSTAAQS

**Q.** What does the source list for “PiPSR2 (PSR2 encoded by Phytophthora infestans) (from UniProt D0NRS4 22-760)”?
**A.** binding [1]: binds; binding [2]: binds
